## Results of single-concentration screens

Amino acid sequences for entries named in this document (tags omitted). Residues count along the entry.
UniProt A4I591, 1-473: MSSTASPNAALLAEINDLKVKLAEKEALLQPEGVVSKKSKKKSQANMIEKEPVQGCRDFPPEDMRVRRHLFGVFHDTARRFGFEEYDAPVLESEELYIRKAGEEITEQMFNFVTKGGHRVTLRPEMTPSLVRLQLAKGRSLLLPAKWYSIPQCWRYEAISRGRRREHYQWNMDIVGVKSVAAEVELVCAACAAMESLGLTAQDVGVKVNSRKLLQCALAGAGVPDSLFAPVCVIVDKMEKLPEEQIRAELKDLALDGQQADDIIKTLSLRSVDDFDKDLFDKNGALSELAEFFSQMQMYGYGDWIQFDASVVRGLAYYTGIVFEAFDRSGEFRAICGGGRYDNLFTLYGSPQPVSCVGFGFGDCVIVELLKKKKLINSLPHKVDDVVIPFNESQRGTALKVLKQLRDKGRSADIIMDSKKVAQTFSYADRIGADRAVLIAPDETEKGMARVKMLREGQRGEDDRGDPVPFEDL
UniProt P9WFT3, whole entry: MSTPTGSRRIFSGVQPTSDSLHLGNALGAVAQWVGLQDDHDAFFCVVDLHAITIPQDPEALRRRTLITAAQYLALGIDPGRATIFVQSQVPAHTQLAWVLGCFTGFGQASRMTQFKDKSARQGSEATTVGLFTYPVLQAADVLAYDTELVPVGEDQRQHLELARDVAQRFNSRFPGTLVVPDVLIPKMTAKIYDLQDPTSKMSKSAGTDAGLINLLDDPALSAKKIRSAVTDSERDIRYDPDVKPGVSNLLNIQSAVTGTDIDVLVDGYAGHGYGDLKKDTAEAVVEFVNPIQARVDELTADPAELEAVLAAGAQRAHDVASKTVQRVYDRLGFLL

Source: ChEMBL document CHEMBL3988442, “University of Dundee, Small-Polar-MMV Screening Library” (2021).

Each number is a percent effect as filed. The record does not define 0% and 100%; most values in the screen are far below 50% and negative numbers occur (in some assays of this library far below -100). This is an unselected part of the compounds tested. A dash means the value is not listed here; it may have been measured.

LiHisRS: 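Histidine-tRNA ligase, Leishmania infantum (UniProt A4I591). Enzyme assay of histidyl-tRNA synthetase; the read-out is not stated. Compounds at 30 µM. The record gives no direction; compounds that gave an IC50 in retests scored well above the rest, so higher reads as stronger inhibition. The assay is labelled LdHisRS but filed under L. infantum. Of about 69,000 compounds tested this way, about 410 (0.6%) reached 50% or more in at least one test.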
T. brucei: 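Whole-parasite assay of Trypanosoma brucei over 72 hours; the read-out is not stated. Concentration: 30 µM. Higher reads as stronger inhibition (inferred: compounds with an IC50 in retests scored well above the rest). Values scatter widely below zero; nearly all retest evidence comes from the higher of the two concentrations used. About 64,000 compounds were tested under these conditions; 1.5% (about 940) showed 50% or more at least once.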
MtTrpRS: 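Tryptophan-tRNA ligase, Mycobacterium tuberculosis (UniProt P9WFT3). Enzyme assay of tryptophanyl-tRNA synthetase; the read-out is not stated. Tested at 10 µM. Direction is not recorded; retested compounds ran higher, which suggests that high means inhibition. About 65,000 compounds were tested under these conditions; 0.098% (about 64) showed 50% or more at least once.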

| Compound | LiHisRS | T. brucei | MtTrpRS |
|---|---|---|---|
| `c1cc(CN2CCC(c3ccc4c(c3)OCO4)CC2)ccn1` | 4.348 | - | -1.244 |
| `COc1ncnc(N)c1CNCC(C)SC` (configuration not stated) | 9.167 | -16.07 | 2.89 |
| `COc1ccc(S(=O)(=O)N2CCC(OCc3ccccn3)C2)cc1Br` (configuration not stated) | 17.5 | -20.1 | 0.6192 |
| `[H][C@]12CCN(C(=O)NCc3ccccc3)C[C@@]1([H])OCCN(CC)C2` | - | -82.03 | - |
| `CC(NC(=O)CN1CCN(c2cccc(Cl)c2)CC1)c1ccco1` (configuration not stated) | 8.85 | - | 3.297 |
| `COc1cc(CN(C)C(=O)NCCC2CCCO2)ccc1SC` (configuration not stated) | 15.38 | -1.408 | -1.313 |
| `CNc1cc(N2CCCC2CNCc2cccs2)ncn1` (configuration not stated) | 22.35 | -4.427 | 6.262 |
| `COc1cccc(N2CCN(CC(O)c3ccc(C)cc3)CC2)c1` (configuration not stated) | 28.57 | 17.53 | 2.013 |
| `Cc1noc(C)c1CN1CCOC2(CCCN(c3ccccn3)C2)C1` (configuration not stated) | 28.57 | -2.899 | 4.719 |
| `Cc1ncnc2c1CCN(c1cc(C(F)(F)F)ncn1)CC2` | 11.32 | -57.18 | 0.1049 |
| `N#Cc1ncn(CCS(=O)(=O)c2ccc(Cl)cc2)n1` | 9.091 | -45.19 | 3.972 |
| `Cc1cccc(C(=O)Nc2c(C(N)=O)n[nH]c2C)c1C` | 1.036 | -10.28 | -0.3068 |
| `O=C1CO[C@H]2CN(C3CCOCC3)C[C@H]2N1Cc1ccccn1` | -4.054 | - | -4.021 |
| `O=C(O)C(F)(F)F.[H][C@@]12CO[C@@H](CNS(C)(=O)=O)[C@]1([H])CCN(Cc1ccsc1)C2` | - | -49.79 | - |
| `Cc1ncnc2c1CCN(Cc1cccs1)CC2` | 5.66 | - | 7.87 |
| `CN1CCC(Oc2ccc(NC(=O)c3cccc(Cl)c3)cc2)CC1` | 4.717 | 26.67 | 0.08285 |
| `Cc1nc(C)n(CC2CCCN(Cc3cccc(C(N)=O)c3)C2)n1` (configuration not stated) | 12.5 | -6.876 | -3.625 |
| `CCNC(=O)NC(=O)CNc1cc(C(=O)OC)cc(C(F)(F)F)c1` | 13.7 | -4.452 | -1.636 |
| `O=C(CS(=O)(=O)C1CCCC1)NC(c1ccc(F)cc1)C1CC1` (configuration not stated) | 13.83 | -14.2 | 5.124 |
| `O=C(NCc1ccccn1)[C@@H]1COC[C@H]2CN(c3ncccn3)C[C@H]21` | 15.79 | - | -6.312 |
| `CNc1ncc2c(n1)CN(CCc1ccccc1)C2=O` | 28.4 | 0.2551 | 3.565 |
| `[H][C@@]12CCN(C3CCC3)C[C@]1([H])OCCN(Cc1ccncc1)C2=O` | - | -8.278 | - |
| `O=c1[nH]c(NCCO)nc2c1C1(CCCCC1)Cc1ccccc1-2` | 23.68 | -43.04 | 1.568 |
| `O=C(O)C(F)(F)F.[H][C@@]12COC[C@]1(CNC(=O)COC)CN(c1ncc(F)cn1)C2` | - | -14.56 | - |
| `[H][C@@]12CC[C@H](Oc3ccccc3)[C@]1([H])CN(C(=O)COCC)C2` | - | -14.06 | - |
| `O=C(O)C(F)(F)F.[H][C@@]12CN(CC)C[C@]1([H])[C@H](OC)CCN2S(=O)(=O)c1ccccc1` | - | -350.3 | - |
| `CSCCC(Nc1nc(C)cc(C)n1)C(=O)NC(C)(C)CO` (configuration not stated) | 19.57 | -34.17 | 1.125 |
| `FC(F)(F)c1n[nH]c2c1CN(Cc1cn3ccccc3n1)CC2` | 14.04 | -6.733 | -0.6053 |
| `Cc1cc(S(=O)(=O)NCC(C)(C)N)c(F)cc1F` | 14.29 | - | 1.296 |
| `O=C(O)C(F)(F)F.O=C(O)C(F)(F)F.O=C(O)C(F)(F)F.c1ccc(CN2Cc3[nH]nc(COc4cccnc4)c3C2)nc1` | - | -53.48 | - |
| `CN(C)CCN1CCN(Cc2cccc(C#N)c2)Cc2cccnc21.O=C(O)C(F)(F)F.O=C(O)C(F)(F)F.O=C(O)C(F)(F)F` | - | -65.33 | - |
| `CC(C)c1nnc2n1CCN(Cc1cccc3c1OCCO3)C2` | -1.667 | 22.98 | -2.637 |
| `[H][C@@]12CN(CC3CC3)C[C@]1([H])N(Cc1ccccc1OC)C(=O)O2` | - | -11.36 | - |
| `CN(C)C[C@]12COC[C@H]1CN(Cc1ccc3c(c1)OCO3)C2` | 21.78 | - | - |
| `CC(C)N(Cc1ccccn1)Cc1nc2c(cnn2C)c(=O)[nH]1` | 12.04 | 4.471 | -3.61 |
| `O=C(c1ccc(O)c(Cl)c1)N(Cc1ccncc1)C1CC1` | 5.172 | -73.93 | -5.759 |
| `CC(C)c1nn(C)c(N2CCOCC2)c1CNCCC(=O)N(C)C` | -2.778 | -10.23 | 14.04 |
| `Cc1cc(C)cc(-c2cccc(CC3(C(=O)O)CCOCC3)c2)c1` | -13.89 | -38.8 | 2.09 |
| `Cc1ccc(-n2cc(CN3CCOCC3)c(-c3cccc(C)c3)n2)cc1` | -6.667 | 3.807 | 1.326 |

3 of the entries, repeated:

Compound,LiHisRS,T. brucei,MtTrpRS
c1cc(CN2CCC(c3ccc4c(c3)OCO4)CC2)ccn1,4.348,-,-1.244
O=C(CS(=O)(=O)C1CCCC1)NC(c1ccc(F)cc1)C1CC1 (configuration not stated),13.83,-14.2,5.124
N#Cc1ncn(CCS(=O)(=O)c2ccc(Cl)cc2)n1,9.091,-45.19,3.972